PubChem BioAssay AID504784, Drosophila RNAi Screening Center – 2011

- Screen: 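Genome-wide knock-down for genes giving too much or too little stored lipid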 (primary screen)
- Cell system: Drosophila Kc167 embryonic cells
- Reagents: long dsRNA against Drosophila genes, about 250 ng dsRNA per well
- Timing: 4 days
- Treatment: cells fed 400 µM oleic acid bound to BSA
- Read-out: 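Microscope images give a droplet-to-nucleus area ratio, taken as log and converted to a screen-wide B-score; higher values mean greater lipid storage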
- Reading the numbers: droplet/nuclear area B-score: higher = more stored lipid (overstorage)
The screen tested about 17,000 reagents; this is an unselected part of those with a known target gene and a result. 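Each column is one replicate's B-score; the combined score over replicates was not deposited, so single values may mislead.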 A plus sign joins genes that one reagent is predicted to hit.

| gene knocked down | dsRNA | droplet/nuclear area B-score, replicate 1 | droplet/nuclear area B-score, replicate 2 | droplet/nuclear area B-score, replicate 3 |
| --- | --- | --- | --- | --- |
| lectin-30A (GeneID 53541) | DRSC02560 | 2.2 | 1.92 | – |
| Rabex-5 (GeneID 38144) | DRSC08628 | -0.396 | -2.26 | – |
| CG33292 (retired record) (GeneID 2768953) | DRSC22923 | 0.582 | -0.0408 | – |
| CG7974 (GeneID 38207) | DRSC08607 | -0.791 | 0.44 | – |
| Taz (GeneID 36405) | DRSC07704 | -0.0471 | 0.431 | -1.94 |
| Taz (GeneID 36405) | DRSC22625 | -0.456 | -0.928 | – |
| CG45067 (GeneID 38371) | DRSC08414 | -1.04 | -0.38 | – |
| lncRNA:CR41601 (GeneID 5740627) | DRSC22158 | 0.287 | 0.983 | – |
| CG42237 (GeneID 32261) | DRSC19891 | 0.97 | -1.58 | -0.0734 |
| CG13239 (GeneID 40503) | DRSC11694 | 0.343 | -0.771 | – |
| GABA-B-R2 (GeneID 42561) | DRSC14134 | -0.853 | 1.72 | -0.446 |
| CG6602 (GeneID 38691) | DRSC10673 | -0.507 | -1.34 | – |
| CG12237 (GeneID 32967) | DRSC19449 | 0.512 | 0.454 | 1.2 |
| CG12237 (GeneID 32967) | DRSC22256 | 0.742 | 0.00605 | – |
| ALiX (GeneID 43330) | DRSC14564 | 0.534 | 1.37 | – |
| Aprt (GeneID 48224) | DRSC08139 | -0.188 | -0.498 | – |
| CG15772 (GeneID 31498) | DRSC18078 | 2.29 | 2.34 | – |
| CG9107 (GeneID 33843) | DRSC03138 | -0.108 | -1.69 | – |
| CG5883 (GeneID 39352) | DRSC10552 | -0.963 | -0.765 | – |
| Arf4 (GeneID 43823) | DRSC17195 | 1.34 | 2.38 | – |
| CG42553 (GeneID 38094) | DRSC08356 | 1.31 | 1.23 | – |
| Erasp (GeneID 246448) | DRSC07111 | 1.12 | -1.31 | – |
| dwg (GeneID 31265) | DRSC18766 | 1.04 | – | – |
| eIF4H1 (GeneID 49809) | DRSC20276 | -1.57 | -0.619 | – |
| pall (GeneID 39104) | DRSC10364 | 0.614 | 1.12 | – |
| CG17221 (GeneID 33521) | DRSC00487 | 0.0822 | -1.73 | – |
| Rdh1 (GeneID 35708) | DRSC06812 | -1 | -0.669 | – |
| CG7766 (GeneID 31839) | DRSC18424 | -2.02 | -2.29 | 0.207 |
| CG10418 (GeneID 39408) | DRSC09720 | -1.85 | -1.55 | – |
| CG33233 (GeneID 2769005) | DRSC08239 | 1.17 | 1.04 | – |
| Jon74E (GeneID 39959) | DRSC10617 | -0.501 | -0.375 | – |
| CG2004 (GeneID 31809) | DRSC18200 | 0.948 | 1.32 | – |
| 7SLRNA:CR42652 + 7SLRNA:CR32864 | DRSC22968 | 0.869 | -0.257 | – |
| alrm (GeneID 43074) | DRSC14436 | 0.862 | 0.23 | – |
| yl (GeneID 32367) | DRSC20387 | -1.56 | -1.62 | – |
| CG42502 + CG10570 | DRSC02071 | 0.287 | -0.0643 | – |
| eEF2 (GeneID 35422) | DRSC03737 | 0.778 | 0.667 | – |
| tsl (GeneID 42564) | DRSC17090 | -0.409 | 0.93 | – |
| CG4914 (GeneID 39597) | DRSC10458 | -0.341 | -0.607 | – |
| CG18563 (GeneID 35050) | DRSC02676 | -0.177 | 2.75 | – |
| TTLL15 (GeneID 41300) | DRSC15543 | -0.133 | -2.03 | – |
| par-1 (GeneID 2768852) | DRSC05792 | 1.36 | 0.153 | – |
| par-1 (GeneID 2768852) | DRSC06098 | -0.516 | -0.00623 | – |
| par-1 (GeneID 2768852) | DRSC06616 | 2.66 | – | – |
| par-1 (GeneID 2768852) | DRSC07660 | 0.0489 | 0.568 | – |
| par-1 (GeneID 2768852) | DRSC07661 | -1.12 | -1.74 | – |
| CG11593 (GeneID 38477) | DRSC08206 | 0.575 | -0.291 | – |
| CG9662 (GeneID 33554) | DRSC00723 | -0.0194 | 0.364 | – |
| DMAP1 (GeneID 37339) | DRSC06044 | 2.64 | 2.09 | – |
| CG14174 (GeneID 39139) | DRSC10175 | -0.596 | 0.00132 | – |
| Phae2 (GeneID 34638) | DRSC02555 | 0.38 | -1.13 | – |
| Ssl1 (GeneID 40509) | DRSC11634 | 0.851 | -0.00312 | -0.228 |
| Trmt112 (GeneID 40343) | DRSC11685 | -1.15 | -0.673 | – |
| CG10139 (GeneID 36626) | DRSC05972 | 0.016 | 0.604 | – |
| CG16879 (retired record) (GeneID 34827) | DRSC01918 | 0.0724 | -0.0543 | 2.65 |
| CG16879 (retired record) (GeneID 34827) | DRSC22849 | 0.0934 | -0.396 | – |
| AttD (GeneID 42122) | DRSC16272 | -0.437 | 0.0293 | – |
| sxe2 (GeneID 41954) | DRSC15692 | 0.123 | 0.0798 | – |
| CG14655 (GeneID 40594) | DRSC12241 | 0.784 | -0.00319 | – |
| CG34345 (GeneID 5740402) | DRSC02126 | 1.01 | 0.0896 | – |
| CG17574 (GeneID 36415) | DRSC06681 | -0.763 | -0.564 | 1.28 |
| dpr1 (GeneID 2768858) | DRSC06399 | -1.1 | -0.936 | – |
| CG13587 (GeneID 37930) | DRSC04223 | -1.98 | 1.88 | – |
| Karybeta3 (GeneID 40581) | DRSC12355 | -2.62 | -0.115 | 0 |
| CG7376 (GeneID 38715) | DRSC10829 | -1.33 | -2.18 | – |
| CG13404 (GeneID 32382) | DRSC19536 | 0.889 | 5.66 | – |
| Daxx (GeneID 33906) | DRSC03255 | 1.17 | 0.625 | – |
| D12 (GeneID 34172) | DRSC03311 | 0.0691 | -2.94 | – |
| CG15260 (GeneID 34899) | DRSC01977 | 0.836 | 2.01 | – |
| RyR (GeneID 49090) | DRSC07543 | 0.723 | 1.08 | – |
| Hecw (GeneID 31905) | DRSC18261 | 0.853 | 1.06 | -0.115 |
| Hecw (GeneID 31905) | DRSC18276 | 1.49 | 0.414 | 0.396 |
| CG12857 (GeneID 36642) | DRSC06197 | -0.0183 | 0.984 | – |
| Eaat2 (GeneID 33247) | DRSC00032 | 0.929 | 0.285 | – |
| Eaat2 (GeneID 33247) | DRSC00749 | -0.636 | 0.84 | – |
| OstDelta (GeneID 37029) | DRSC06980 | -2.41 | – | – |
| fy (GeneID 34166) | DRSC03533 | 0.0887 | 0.749 | – |
| CG7737 (GeneID 36174) | DRSC07033 | -2 | -0.534 | – |
| Obsc (GeneID 3346201) | DRSC04301 | 1.44 | 1.12 | – |
| Obsc (GeneID 3346201) | DRSC04302 | -0.172 | 0.634 | – |
| Obsc (GeneID 3346201) | DRSC04303 | -0.0587 | -0.444 | – |
| Obsc (GeneID 3346201) | DRSC04430 | -0.379 | 0.387 | – |
| Obsc (GeneID 3346201) | DRSC22422 | 0.12 | 0.696 | – |

Laid out differently: results already given
gene knocked down,dsRNA,"droplet/nuclear area B-score, replicate 1","droplet/nuclear area B-score, replicate 2","droplet/nuclear area B-score, replicate 3"
sxe2 (GeneID 41954),DRSC15692,0.123,0.0798,
CG14655 (GeneID 40594),DRSC12241,0.784,-0.00319,
CG34345 (GeneID 5740402),DRSC02126,1.01,0.0896,
CG17574 (GeneID 36415),DRSC06681,-0.763,-0.564,1.28
dpr1 (GeneID 2768858),DRSC06399,-1.1,-0.936,
